Source: paper PMC12624041
Results are given in words; binding and its absence hold for the method and conditions named. In cells and extracts the contact can be indirect.

Sequences of proteins named here, by UniProt entry; tags and fusion partners are left off.
UniProt Q9H361: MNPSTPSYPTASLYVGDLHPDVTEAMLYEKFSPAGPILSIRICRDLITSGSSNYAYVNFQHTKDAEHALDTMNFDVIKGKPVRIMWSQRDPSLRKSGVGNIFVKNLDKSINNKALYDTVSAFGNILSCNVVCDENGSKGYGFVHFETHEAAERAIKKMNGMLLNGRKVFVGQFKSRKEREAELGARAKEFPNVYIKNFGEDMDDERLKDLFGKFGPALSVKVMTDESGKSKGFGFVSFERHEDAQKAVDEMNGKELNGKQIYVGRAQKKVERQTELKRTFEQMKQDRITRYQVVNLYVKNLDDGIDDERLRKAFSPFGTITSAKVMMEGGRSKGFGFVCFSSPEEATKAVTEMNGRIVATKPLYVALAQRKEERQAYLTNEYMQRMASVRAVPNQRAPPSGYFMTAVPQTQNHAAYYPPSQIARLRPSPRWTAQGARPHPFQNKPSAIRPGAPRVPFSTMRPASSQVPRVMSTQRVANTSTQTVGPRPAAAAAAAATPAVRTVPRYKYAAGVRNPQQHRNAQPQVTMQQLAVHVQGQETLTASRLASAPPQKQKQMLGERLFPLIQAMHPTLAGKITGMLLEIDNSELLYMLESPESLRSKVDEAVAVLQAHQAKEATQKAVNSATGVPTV
UniProt O95832: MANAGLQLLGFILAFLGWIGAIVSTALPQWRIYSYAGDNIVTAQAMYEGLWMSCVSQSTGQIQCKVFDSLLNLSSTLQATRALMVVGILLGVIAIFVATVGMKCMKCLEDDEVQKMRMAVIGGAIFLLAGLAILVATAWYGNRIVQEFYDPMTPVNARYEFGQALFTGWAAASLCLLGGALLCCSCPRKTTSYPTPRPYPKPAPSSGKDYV

Biological target: PABPC3 (UniProt Q9H361)
Test: co-IP; cells transfected with the indicated plasmids, harvested 48 h post-transfection, lysed by sonication in HPPO buffer; anti-FlagM2 antibody 1 h at 4 °C, then protein G PLUS-Agarose beads overnight at 4 °C; western blot

- binding: no binding
Substance: CLDN1 (from UniProt O95832 1-211)
